Some of the results follow.

The chains behind the UniProt entries cited, without tags or fusion partners. Where a name states a change or a piece, a line headed by the entry shows the natural chain unless it says otherwise.
UniProt P68402: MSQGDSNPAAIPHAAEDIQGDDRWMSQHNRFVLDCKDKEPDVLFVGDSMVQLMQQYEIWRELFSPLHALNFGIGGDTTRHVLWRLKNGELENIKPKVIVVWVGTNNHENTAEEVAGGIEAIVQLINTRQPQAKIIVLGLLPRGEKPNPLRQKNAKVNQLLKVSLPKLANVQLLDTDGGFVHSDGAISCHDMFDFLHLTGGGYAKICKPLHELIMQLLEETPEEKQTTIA
UniProt P49585: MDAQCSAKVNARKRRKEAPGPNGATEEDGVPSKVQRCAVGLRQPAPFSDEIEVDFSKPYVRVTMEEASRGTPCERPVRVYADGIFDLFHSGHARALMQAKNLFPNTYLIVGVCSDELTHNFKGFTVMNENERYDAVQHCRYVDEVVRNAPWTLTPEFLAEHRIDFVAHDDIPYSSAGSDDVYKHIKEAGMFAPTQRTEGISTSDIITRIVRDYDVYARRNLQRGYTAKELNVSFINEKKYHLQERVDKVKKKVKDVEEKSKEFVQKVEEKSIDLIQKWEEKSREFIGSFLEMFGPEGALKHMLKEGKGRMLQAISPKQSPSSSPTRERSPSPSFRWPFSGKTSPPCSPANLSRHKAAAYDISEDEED
UniProt Q9H4Z3: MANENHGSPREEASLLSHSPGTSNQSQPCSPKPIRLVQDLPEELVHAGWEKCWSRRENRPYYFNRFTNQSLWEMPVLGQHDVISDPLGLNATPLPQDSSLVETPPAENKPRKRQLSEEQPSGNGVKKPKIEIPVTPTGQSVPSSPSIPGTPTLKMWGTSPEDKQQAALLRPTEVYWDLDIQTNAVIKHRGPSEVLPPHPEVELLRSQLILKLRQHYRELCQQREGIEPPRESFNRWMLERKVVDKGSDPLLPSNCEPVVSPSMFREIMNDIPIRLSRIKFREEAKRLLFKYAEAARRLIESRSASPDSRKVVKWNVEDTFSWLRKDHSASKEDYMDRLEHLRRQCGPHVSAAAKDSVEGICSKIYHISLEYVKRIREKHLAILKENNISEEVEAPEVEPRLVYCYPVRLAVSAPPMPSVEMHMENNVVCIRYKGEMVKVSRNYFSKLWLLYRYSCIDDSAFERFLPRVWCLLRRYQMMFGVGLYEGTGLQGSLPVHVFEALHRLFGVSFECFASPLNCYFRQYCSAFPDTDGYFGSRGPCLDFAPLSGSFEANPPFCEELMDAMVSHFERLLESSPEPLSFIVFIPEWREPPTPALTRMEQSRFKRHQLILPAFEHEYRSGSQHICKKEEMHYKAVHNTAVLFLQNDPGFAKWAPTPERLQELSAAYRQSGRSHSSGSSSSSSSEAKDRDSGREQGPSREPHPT
UniProt Q9H300: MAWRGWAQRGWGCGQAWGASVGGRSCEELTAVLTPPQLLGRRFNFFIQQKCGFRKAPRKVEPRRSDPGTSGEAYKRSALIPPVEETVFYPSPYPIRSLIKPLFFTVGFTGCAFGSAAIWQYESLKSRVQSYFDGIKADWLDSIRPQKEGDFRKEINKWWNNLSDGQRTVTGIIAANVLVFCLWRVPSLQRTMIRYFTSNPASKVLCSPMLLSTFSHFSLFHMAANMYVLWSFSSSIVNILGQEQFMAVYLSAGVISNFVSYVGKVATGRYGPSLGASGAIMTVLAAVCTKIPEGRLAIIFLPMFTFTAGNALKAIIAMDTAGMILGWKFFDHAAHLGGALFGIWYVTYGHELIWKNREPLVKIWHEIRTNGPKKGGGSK
UniProt O00408, whole entry, looked up: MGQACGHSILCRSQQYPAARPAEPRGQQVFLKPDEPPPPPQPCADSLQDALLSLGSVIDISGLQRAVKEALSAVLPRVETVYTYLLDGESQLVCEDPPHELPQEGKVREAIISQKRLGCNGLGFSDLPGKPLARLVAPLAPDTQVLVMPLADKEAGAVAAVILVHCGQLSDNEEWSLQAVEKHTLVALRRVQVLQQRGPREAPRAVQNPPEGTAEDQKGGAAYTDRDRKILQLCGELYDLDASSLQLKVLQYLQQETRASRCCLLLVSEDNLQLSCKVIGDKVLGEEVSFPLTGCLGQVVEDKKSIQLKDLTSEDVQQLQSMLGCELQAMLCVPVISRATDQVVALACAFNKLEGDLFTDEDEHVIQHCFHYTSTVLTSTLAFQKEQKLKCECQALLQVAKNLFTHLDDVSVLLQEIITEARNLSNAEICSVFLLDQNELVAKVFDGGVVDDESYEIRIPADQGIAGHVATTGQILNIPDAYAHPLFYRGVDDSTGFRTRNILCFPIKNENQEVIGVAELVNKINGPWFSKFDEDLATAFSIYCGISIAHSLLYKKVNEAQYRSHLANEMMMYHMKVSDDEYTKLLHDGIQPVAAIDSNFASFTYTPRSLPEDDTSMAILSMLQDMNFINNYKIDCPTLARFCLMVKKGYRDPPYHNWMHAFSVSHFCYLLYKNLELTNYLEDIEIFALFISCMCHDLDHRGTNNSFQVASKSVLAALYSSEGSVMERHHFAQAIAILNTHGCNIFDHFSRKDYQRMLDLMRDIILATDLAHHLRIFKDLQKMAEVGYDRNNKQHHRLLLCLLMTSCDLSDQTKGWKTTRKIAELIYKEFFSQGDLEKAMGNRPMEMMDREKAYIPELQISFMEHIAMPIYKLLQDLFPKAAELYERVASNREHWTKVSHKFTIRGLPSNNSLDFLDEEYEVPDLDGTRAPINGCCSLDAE
UniProt O96013: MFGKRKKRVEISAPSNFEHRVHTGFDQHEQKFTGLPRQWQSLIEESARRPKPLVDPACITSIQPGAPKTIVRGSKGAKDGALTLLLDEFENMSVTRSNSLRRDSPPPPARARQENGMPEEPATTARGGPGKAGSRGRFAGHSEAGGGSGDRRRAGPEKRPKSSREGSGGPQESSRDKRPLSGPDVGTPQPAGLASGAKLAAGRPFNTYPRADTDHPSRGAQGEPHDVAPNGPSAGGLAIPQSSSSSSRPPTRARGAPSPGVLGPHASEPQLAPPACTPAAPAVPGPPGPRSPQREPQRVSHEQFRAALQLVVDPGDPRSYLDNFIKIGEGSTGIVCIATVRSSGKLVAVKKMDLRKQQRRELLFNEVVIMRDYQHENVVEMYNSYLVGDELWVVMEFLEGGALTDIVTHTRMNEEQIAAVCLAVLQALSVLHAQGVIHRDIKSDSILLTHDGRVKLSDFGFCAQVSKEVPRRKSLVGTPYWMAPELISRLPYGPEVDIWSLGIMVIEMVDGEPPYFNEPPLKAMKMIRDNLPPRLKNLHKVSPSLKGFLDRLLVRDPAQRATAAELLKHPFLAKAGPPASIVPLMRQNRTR
UniProt Q13153, whole entry, looked up: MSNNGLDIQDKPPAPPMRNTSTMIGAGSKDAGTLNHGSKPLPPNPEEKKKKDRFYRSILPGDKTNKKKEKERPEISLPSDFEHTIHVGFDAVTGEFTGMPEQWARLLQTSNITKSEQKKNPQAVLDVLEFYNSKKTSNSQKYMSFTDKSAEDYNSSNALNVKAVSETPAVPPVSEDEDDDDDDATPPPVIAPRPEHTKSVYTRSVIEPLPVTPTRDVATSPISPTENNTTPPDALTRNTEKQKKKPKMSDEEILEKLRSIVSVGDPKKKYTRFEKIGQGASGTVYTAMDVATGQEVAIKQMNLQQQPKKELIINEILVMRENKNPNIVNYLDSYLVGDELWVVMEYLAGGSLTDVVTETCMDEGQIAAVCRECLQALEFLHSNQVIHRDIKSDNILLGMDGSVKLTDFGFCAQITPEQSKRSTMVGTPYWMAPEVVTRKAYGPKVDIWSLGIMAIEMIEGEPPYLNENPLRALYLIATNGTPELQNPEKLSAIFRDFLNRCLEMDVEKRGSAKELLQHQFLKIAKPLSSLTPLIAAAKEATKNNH
UniProt O43924: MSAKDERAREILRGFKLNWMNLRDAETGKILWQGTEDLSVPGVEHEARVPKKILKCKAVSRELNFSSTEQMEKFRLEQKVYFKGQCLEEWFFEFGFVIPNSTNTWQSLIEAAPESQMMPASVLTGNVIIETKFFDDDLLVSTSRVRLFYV
UniProt O95453: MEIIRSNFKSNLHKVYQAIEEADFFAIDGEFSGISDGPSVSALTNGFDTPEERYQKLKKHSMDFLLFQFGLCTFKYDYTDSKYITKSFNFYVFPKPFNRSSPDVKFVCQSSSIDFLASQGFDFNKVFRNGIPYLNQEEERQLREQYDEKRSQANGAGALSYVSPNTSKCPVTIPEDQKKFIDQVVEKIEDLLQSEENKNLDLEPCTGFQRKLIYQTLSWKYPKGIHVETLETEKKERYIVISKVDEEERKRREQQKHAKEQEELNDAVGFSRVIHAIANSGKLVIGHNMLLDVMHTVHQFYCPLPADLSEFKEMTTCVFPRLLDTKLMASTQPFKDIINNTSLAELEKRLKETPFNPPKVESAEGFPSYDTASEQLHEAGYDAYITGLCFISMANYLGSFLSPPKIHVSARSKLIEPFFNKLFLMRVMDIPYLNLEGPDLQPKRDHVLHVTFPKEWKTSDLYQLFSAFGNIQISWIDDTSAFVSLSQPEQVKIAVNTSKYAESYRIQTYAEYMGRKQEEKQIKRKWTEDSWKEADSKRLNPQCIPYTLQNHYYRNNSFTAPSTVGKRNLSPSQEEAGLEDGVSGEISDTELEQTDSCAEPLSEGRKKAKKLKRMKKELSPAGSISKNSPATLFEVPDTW
UniProt O96011, whole entry, looked up, stated change not applied: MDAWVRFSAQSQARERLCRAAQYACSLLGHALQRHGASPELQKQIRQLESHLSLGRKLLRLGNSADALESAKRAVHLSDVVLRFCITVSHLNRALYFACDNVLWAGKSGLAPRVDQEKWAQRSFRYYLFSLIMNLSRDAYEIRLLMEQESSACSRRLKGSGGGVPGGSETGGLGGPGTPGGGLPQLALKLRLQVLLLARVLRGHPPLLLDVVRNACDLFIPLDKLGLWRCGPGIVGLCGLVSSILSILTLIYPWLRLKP
UniProt Q6VY07, whole entry, looked up: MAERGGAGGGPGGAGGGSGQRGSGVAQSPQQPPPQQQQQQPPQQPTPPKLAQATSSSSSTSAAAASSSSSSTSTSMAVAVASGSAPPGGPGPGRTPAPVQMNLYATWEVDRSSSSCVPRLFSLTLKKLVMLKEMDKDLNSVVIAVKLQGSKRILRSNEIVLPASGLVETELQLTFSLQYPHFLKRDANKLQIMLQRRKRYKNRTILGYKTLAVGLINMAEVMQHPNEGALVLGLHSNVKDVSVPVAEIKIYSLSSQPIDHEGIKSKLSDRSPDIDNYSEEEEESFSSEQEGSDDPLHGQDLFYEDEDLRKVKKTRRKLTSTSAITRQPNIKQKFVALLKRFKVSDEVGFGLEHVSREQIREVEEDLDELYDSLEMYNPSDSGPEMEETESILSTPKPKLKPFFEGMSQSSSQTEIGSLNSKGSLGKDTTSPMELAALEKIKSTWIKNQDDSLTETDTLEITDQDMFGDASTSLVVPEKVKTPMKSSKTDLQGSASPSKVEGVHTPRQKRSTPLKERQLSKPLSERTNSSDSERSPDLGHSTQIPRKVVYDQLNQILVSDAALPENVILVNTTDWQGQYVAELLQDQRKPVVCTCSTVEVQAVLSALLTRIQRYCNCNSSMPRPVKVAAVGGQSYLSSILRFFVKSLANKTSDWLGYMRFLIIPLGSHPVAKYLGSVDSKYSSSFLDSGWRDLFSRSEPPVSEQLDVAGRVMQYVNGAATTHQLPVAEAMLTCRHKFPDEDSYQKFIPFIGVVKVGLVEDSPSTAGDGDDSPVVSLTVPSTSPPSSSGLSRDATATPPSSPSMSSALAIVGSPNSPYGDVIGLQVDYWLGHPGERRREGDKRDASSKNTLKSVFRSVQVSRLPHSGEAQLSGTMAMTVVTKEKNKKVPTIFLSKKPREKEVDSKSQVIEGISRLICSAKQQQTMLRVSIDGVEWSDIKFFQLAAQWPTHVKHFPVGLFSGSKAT
UniProt P40425: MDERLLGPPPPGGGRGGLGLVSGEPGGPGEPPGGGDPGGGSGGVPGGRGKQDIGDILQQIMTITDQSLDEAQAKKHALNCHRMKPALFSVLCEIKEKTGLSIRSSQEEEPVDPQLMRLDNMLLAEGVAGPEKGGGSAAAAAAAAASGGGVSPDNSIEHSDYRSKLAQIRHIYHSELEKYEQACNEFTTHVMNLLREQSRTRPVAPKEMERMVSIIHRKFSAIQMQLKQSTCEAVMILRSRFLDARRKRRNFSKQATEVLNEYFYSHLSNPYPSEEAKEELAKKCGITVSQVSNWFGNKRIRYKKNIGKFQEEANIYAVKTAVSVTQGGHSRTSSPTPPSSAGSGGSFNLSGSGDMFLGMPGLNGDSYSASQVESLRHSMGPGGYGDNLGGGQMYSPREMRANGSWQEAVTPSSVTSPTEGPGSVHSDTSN
UniProt Q96KB5: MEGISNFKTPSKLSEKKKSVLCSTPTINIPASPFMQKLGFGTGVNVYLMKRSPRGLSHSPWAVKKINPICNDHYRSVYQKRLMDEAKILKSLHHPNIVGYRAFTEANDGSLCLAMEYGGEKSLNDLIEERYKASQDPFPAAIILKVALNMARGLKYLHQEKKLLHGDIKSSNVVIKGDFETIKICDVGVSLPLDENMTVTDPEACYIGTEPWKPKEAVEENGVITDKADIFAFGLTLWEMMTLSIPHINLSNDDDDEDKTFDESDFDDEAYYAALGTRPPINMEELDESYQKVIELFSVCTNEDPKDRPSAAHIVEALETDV

Compound in this test: CN1CCc2c(c3ccccc3n2Cc2ccc(C(=O)NO)cc2)C1 [Tubastatin A]
Description: log2 fold change, soluble protein after heating vs DMSO (PISA); higher = thermal stabilisation; K562 cells, 10 uM, 30 min; active = over 0.2 and 3.5 SD of the protein, either way, in both replicates (recomputed). A digest of the protocol: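 Soluble protein was defined as the supernatant after 21,000xg for 90 min. It came from K562 cells at 2×10^6 cells/mL given 10 μM compound for 30 min, heated in aliquots for 3 min across 48°C-58°C, pooled, and extracted in PBS with 0.5% NP-40 at 4°C, and was quantified by TMTpro 16plex LC-MS/MS with equalised channel sums. Thermal stability against control samples, from duplicates, is reported as log2 fold change.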
Turning to PARP1 (UniProt P09874), the log2 fold change is inactive: 0.037.
In the case of PCLAF (UniProt Q15004) it was inactive: 0.08; in that of PAFAH1B2 (UniProt P68402), inactive: -0.058; in that of PCYT1A (UniProt P49585), inactive: 0.013.
Under PATL1 (UniProt Q86TB9) stands inactive: -0.001; under PECAM1 (UniProt P16284), inactive: 0.096; under PCIF1 (UniProt Q9H4Z3), inactive: -0.004.
Under PCID2 (UniProt Q5JVF3) stands inactive: 0.006.
Regarding PARL (UniProt Q9H300), the log2 fold change was inactive: -0.053.
Regarding PDE2A (UniProt O00408), the log2 fold change is inactive: 0.208.
In the case of PAK4 (UniProt O96013), the log2 fold change is inactive: 0.005.
Under PAK1 isoform 2 (UniProt Q13153) stands inactive: -0.098.
In the case of PDE6D (UniProt O43924) it was inactive: 0.029; in that of PARN (UniProt O95453), inactive: -0.017; in that of PDS5A (UniProt Q29RF7), inactive: -0.235.
PEX11B (UniProt O96011): the log2 fold change was inactive: -0.021.
Under PCBP1 (UniProt Q15365) stands inactive: 0.013; under PACS1 (UniProt Q6VY07), inactive: 0.038; under PCBP2 isoform 3 (UniProt Q15366), inactive: 0.025.
In the case of PEA15 isoform 2 (UniProt Q15121) it was inactive: -0.009; in that of PBX2 (UniProt P40425), inactive: -0.069.
With PBK (UniProt Q96KB5), the log2 fold change was inactive: 0.089.
Under PDPK1 (UniProt O15530) stands inactive: 0.023.

Values taken from the supplement of paper PMC10849652.
